Measurements from “University of Dundee, Small-Polar-MMV Screening Library” (2021), ChEMBL document CHEMBL3988442.

Each number is a percent effect as filed. How 0% and 100% were set is not recorded. Most values in the screen are low, and negative values occur. The compounds are a random part of those screened. A dash means the value is not listed here; it may have been measured.

Mtb growth Cornell: 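Whole-cell assay for inhibitors of Mycobacterium tuberculosis growth, labelled Cornell in the record; the read-out is not stated. The concentration is filed as 10 mM, unlikely as a test dose, so the dose is not known. The record gives no direction; compounds strong in two other growth screens of this library score well above the rest, so higher reads as stronger inhibition. Of about 53,000 compounds tested this way, about 900 (1.7%) reached 50% or more in at least one test.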
Mtb heat-shock: 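Assay on Mycobacterium tuberculosis, filed only as a heat shock assay from Cornell; the read-out is not stated. The concentration is filed as 10 mM, unlikely as a test dose, so the dose is not known. Higher reads as stronger inhibition (inferred: compounds with an IC50 in retests scored well above the rest). Of about 69,000 compounds tested this way, about 930 (1.4%) reached 50% or more in at least one test.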

compound | Mtb growth Cornell | Mtb heat-shock
COc1ccccc1OCC(=O)n1nc(C)c(C)c1C | -51.8 | -11.25
Cc1cc(C2CCCN(CCCS(=O)(=O)c3ccccc3)C2)n[nH]1 (stereo not given) | -16.65 | 8.578
C=Cn1cc(CN2CCN(CC3(c4ccccc4)CC3)CC2)c(C)n1 | 22.16 | -7.087
Cc1nnc(CN2CCCC2c2ccc(Cl)c(Cl)c2)o1 (stereo not given) | 17.96 | 10.29
C[C@@H]1CN(C(=O)Cn2ccc3ncccc3c2=O)C[C@H](C)O1 | - | -82.33
Cc1cc(C(=O)O)cc(S(=O)(=O)Nc2ccc3c(c2)OCO3)c1C | 29.23 | 33.03
CC(=O)Nc1ccc(SCC(O)COCc2ccc3c(c2)OCO3)cc1 (stereo not given) | 15.89 | 7.637
Cc1ccc(=O)n(CC2(O)CCN(Cc3c(F)cccc3F)CC2)n1 | 12.83 | -11.72
CC(=O)N1CCCCCC1C1CCN(Cc2nc(C3CC3)no2)CC1 (stereo not given) | -22.97 | -6.014
O=C(NC1CC1)N1Cc2[nH]nc(COc3cccnc3)c2C1.O=C(O)C(F)(F)F | -1.49 | -4.598
CC(C)Cc1cc(C(=O)NCc2nnc[nH]2)[nH]n1 | -29.02 | 10.42
COc1ccc(-c2n[nH]cc2CN(C)CCC2CCOCC2)cc1F | 3.537 | -6.034
CCCc1c(C(=O)NC2CCCC2)nnn1-c1ccc(OC)cc1 | - | 3.832
Cc1cccnc1CC(C)NC1Cc2ccccc2C1 (stereo not given) | - | -7.853
COc1ccc(OC)c(C(=O)Nc2cccnc2-n2cncn2)c1 | - | 6.34
CN1N=C(C(=O)NCCc2csc(-c3ccccc3)n2)CCC1=O | 7.096 | -21.93
CCOCC(=O)Nc1cc(C)cnc1OC | 3.554 | -2.668
COc1cc(C(=O)NS(=O)(=O)c2cncc(Br)c2)cc(Cl)c1OC | - | -14.73
N#Cc1c(Cl)nsc1NCc1ccc(N2CCSCC2)cc1 | 23.04 | 45.73
O=C(NC1CCc2nccn2C1)c1ccc(NC2CC2)nc1 (stereo not given) | -8.197 | 5.437
CCC(=O)c1ccc(OCC(=O)N(C)C(C)c2ccon2)cc1 (stereo not given) | 4.439 | -23.8
c1ccc(Cn2cccn2)c(CN2CCCCC2CCn2ccnc2)c1 (stereo not given) | -0.8758 | -19.57
NCC1(c2cccc(C(F)(F)F)c2)CCC1 | - | 10.99
COc1c(C2CCCN2CC(=O)Nc2cc(C)nn2C)c(C)nn1C (stereo not given) | - | 1.384
CCO[C@H]1C[C@@H](O)C12CCN(S(=O)(=O)c1ccccc1OC)CC2 | -52.43 | -4.405
CC(C)NC(=O)Nc1ccc(CNCc2cccc(C#N)c2)cc1 | 28.85 | 24.01
O=C(c1cccnc1)N1Cc2ccccc2OCC1Cn1ccnc1 (stereo not given) | 10.29 | 8.724
CC(C)Cc1ccc(S(=O)(=O)Nc2ccc(=O)n(C)c2)cc1 | 16.65 | 12.05
O=C(NCCCNc1ccccn1)NCC1CCS(=O)(=O)C1 (stereo not given) | 14.15 | -3.202
[H][C@@]12CN(CCc3ccccc3)C[C@]1([H])OCCN2c1ncccn1 | 34.11 | -5.106
CN(C)C(=O)c1cccnc1-c1ccc2c(c1)OCCO2 | -38.53 | 7.075
OCCNc1cc(-c2ccncc2)ncn1 | -13.02 | -16.53
c1cncc(Cc2nnc3n2CCN(CC2CCCNC2)CC3)c1 (stereo not given) | -2.71 | -11.3
CC(C)c1n[nH]c(C2CN(C(=O)c3ncoc3C(C)C)CCO2)n1 (stereo not given) | -2.194 | 0.376
[H][C@@]12COC[C@]1(c1nnc(C3CC3)o1)CN(C(=O)N(C)C)C2 | 14.19 | -4.493
O=C(O)C(F)(F)F.[H][C@@]12CCN(Cc3ccco3)C[C@]1([H])[C@@H](CNC(=O)c1ccsc1)OC2 | 8.446 | -19.07
O=C(COCC(=O)N(c1ccccc1)c1ccccc1)N1CCCC1 | 25.28 | 2.513
Cc1cc(CN(C)C(=O)c2cccc(N3CCCS3(=O)=O)c2)no1 | - | -9.581
CN(C)Cc1cc(CC2(NCc3ccc(C#N)cc3)COC2)no1 | 11.92 | -30.74
Cc1ccc(NC(C)(C)c2nnnn2-c2ccc(Cl)cc2)c(C)c1 | - | -11.45
CCC(=O)N1CCC(c2ncc(C(=O)Nc3ccccc3)c(C)n2)C1 (stereo not given) | 40.52 | -2.745
Cc1nc(CC(=O)N2CCCC2c2nc(-c3ccccc3)no2)cs1 (stereo not given) | 12.35 | -12.17
CCc1nnc(C2Cc3ccccc3CN2Cc2nc(C)no2)o1 (stereo not given) | - | -8.463
Cc1cc(NCc2cccc(C#N)c2)ccc1C(N)=O | 38.13 | -8.044
Cc1ccccc1C(=O)N1CCOC(c2ncc(CN(C)C)[nH]2)C1 (stereo not given) | 6.753 | 2.268
CC1(C)CC(N2CCN(C3CCCC3)C(CCO)C2)CC(C)(C)C1 (stereo not given) | 23.57 | -2.614
[H][C@@]12COC[C@]1(COC)CN(C(=O)c1ccc(F)cc1C)C2 | -1.614 | -10.14
O=C(O)C(F)(F)F.O=C(O)C(F)(F)F.[H][C@@]12CN(Cc3cccc(F)c3)CCC[C@]1(C(=O)O)CN(CCOC)C2 | 0.4486 | -9.655
CC(C)COCC(NC(=O)c1cnccn1)c1ccco1 (stereo not given) | - | 24.67
Cc1n[nH]c(C)c1NC(=O)NCc1cc[nH]n1 | -16.77 | 0.5778
O=C(NCCO)c1coc(CN2CCN(c3ccccc3F)CC2)n1 | -13.51 | -0.5583
Cc1nccc(CNC(=O)N(CCCO)C2CCc3ccccc32)n1 (stereo not given) | - | -19.27
CN(C)C(=O)C1(c2cnccn2)CCCN1C(=O)Cc1ccccc1 (stereo not given) | 9.318 | 0.9078
Cc1ccc(-c2nc(C(=O)N(C)C3CCN(C)CC3)cs2)c(C)c1 | - | 7.619
COCCCS(=O)(=O)N1CCN(C(=O)CO)CC1 | -30.91 | 13.01
Cc1nc(C)c(-c2ccn(CC(=O)Nc3cnn(C)n3)n2)s1 | 30.98 | -11.19
c1cc(CN2CCC(c3ccnc4nccn34)C2)ccn1 (stereo not given) | 18.67 | -23.73
Cc1nc(CN2CCCC(N(C)CCc3cccs3)C2)no1 (stereo not given) | -3.538 | 86.93
CCCN(CC(=O)NC)C(=O)c1ccc(-c2nc(C)cs2)cc1 | 8.736 | 17.3
Cc1cnn(CC2CCCN2CCCc2nc3ccccc3o2)c1 (stereo not given) | 32.71 | 22.65
CN1CCN(c2ccc(Br)cc2NC(=O)c2ccco2)CC1 | 9.909 | 19.84

5 of the entries, repeated:

- CC(C)Cc1cc(C(=O)NCc2nnc[nH]2)[nH]n1 : Mtb growth Cornell: -29.02%; Mtb heat-shock: 10.42%
- CCCc1c(C(=O)NC2CCCC2)nnn1-c1ccc(OC)cc1 : Mtb heat-shock: 3.832%
- NCC1(c2cccc(C(F)(F)F)c2)CCC1 : Mtb heat-shock: 10.99%
- Cc1ccccc1C(=O)N1CCOC(c2ncc(CN(C)C)[nH]2)C1 (stereo not given) : Mtb growth Cornell: 6.753%; Mtb heat-shock: 2.268%
- CCCN(CC(=O)NC)C(=O)c1ccc(-c2nc(C)cs2)cc1 : Mtb growth Cornell: 8.736%; Mtb heat-shock: 17.3%